Record: PubChem BioAssay AID1259280 (Sanger Institute, 2017)
Test: 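Kinase knock-downs that kill colorectal cancer cells or add to anchor drugs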 (primary screen). System: human SNU407 colorectal cancer cells. Reagent: siRNA pool against human genes. Conditions: anchor drugs BYL719 at 1 µM, cetuximab at 5 µg/ml or trametinib at 10 nM, or DMSO vehicle alone; exposure time not given. Measured: 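Viability per well scaled to a non-targeting pool and averaged over replicates, with a robust z-score from controls and a synergy score per anchor drug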. Scale: viability z-score, no drug and viability vs control, no drug: higher = more cells survive the knock-down. Units: viability vs control, no drug in fraction of control. Rule for the call: 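Essential calls require a no-drug robust viability z-score under -3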. Calls: active = essential (knock-down alone kills cells); inactive = no change without drug.
This is an unselected part of 794 reagents tested. In the full data, 12 (1.5%) are marked active. 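Calls cover knock-down without drug only; synergy scores stand apart, values above 0.15 being treated as synergy.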 No viability above 1 is reported: the scale is capped. Not all columns of the deposit are shown. Not given: the amount of reagent, the time to read-out.

After knock-down of MYLK3 (myosin light chain kinase 3), the record shows viability z-score, no drug 0.529; viability vs control, no drug 0.972; inactive. For MUSK (muscle associated receptor tyrosine kinase) the deposit lists viability z-score, no drug 0.901; viability vs control, no drug 1; inactive. With knock-down of CIT (citron rho-interacting serine/threonine kinase) the results were viability z-score, no drug -1.49; viability vs control, no drug 0.818; inactive. For ELP1 (elongator acetyltransferase complex subunit 1), the values are viability z-score, no drug 0.442; viability vs control, no drug 0.965; inactive. PIK3R5 (phosphoinositide-3-kinase regulatory subunit 5) gave viability z-score, no drug 0.171; viability vs control, no drug 0.944; inactive. For SMAD2 (SMAD family member 2), the entry reads viability z-score, no drug 0.758; viability vs control, no drug 0.989; inactive.

For CAMK2A (calcium/calmodulin dependent protein kinase II alpha), the values are viability z-score, no drug 0.547; viability vs control, no drug 0.973; inactive. After knock-down of RPS6KA2 (ribosomal protein S6 kinase A2) the results were viability z-score, no drug -1.21; viability vs control, no drug 0.839; inactive. Depletion of FN3K (fructosamine 3 kinase) resulted in: viability z-score, no drug 0.901; viability vs control, no drug 1; inactive. GNE showed viability z-score, no drug 0.342; viability vs control, no drug 0.957; inactive. After knock-down of EPHA10 (EPH receptor A10), the screen gave viability z-score, no drug -0.184; viability vs control, no drug 0.917; inactive. For CDK9 (cyclin dependent kinase 9), the values are viability z-score, no drug 0.901; viability vs control, no drug 1; inactive.

RPS6KA6 (ribosomal protein S6 kinase A6) scored viability z-score, no drug -0.341; viability vs control, no drug 0.905; inactive. MPP3 (MAGUK p55 scaffold protein 3) gave viability z-score, no drug -1.11; viability vs control, no drug 0.846; inactive. Against SMC1A (structural maintenance of chromosomes 1A) the deposit lists viability z-score, no drug -1.2; viability vs control, no drug 0.839; inactive. After knock-down of LMTK3 (lemur tail kinase 3), the screen gave viability z-score, no drug -0.557; viability vs control, no drug 0.889; inactive. PDGFRA (platelet derived growth factor receptor alpha) showed viability z-score, no drug 0.901; viability vs control, no drug 1; inactive. NME2 (NME/NM23 nucleoside diphosphate kinase 2) scored viability z-score, no drug 0.901; viability vs control, no drug 1; inactive.

Against AK1 (adenylate kinase 1) the deposit lists viability z-score, no drug -1.7; viability vs control, no drug 0.801; inactive. For MAST2 (microtubule associated serine/threonine kinase 2) the deposit lists viability z-score, no drug 0.901; viability vs control, no drug 1; inactive. With knock-down of LRRK1 (leucine rich repeat kinase 1), the record shows viability z-score, no drug 0.901; viability vs control, no drug 1; inactive. For VRK2 (VRK serine/threonine kinase 2), the values are viability z-score, no drug -0.221; viability vs control, no drug 0.914; inactive. After knock-down of CAMK2G (calcium/calmodulin dependent protein kinase II gamma) the results were viability z-score, no drug 0.541; viability vs control, no drug 0.973; inactive. Silencing of ZC3H11A (zinc finger CCCH-type containing 11A) came out at: viability z-score, no drug -1.21; viability vs control, no drug 0.838; inactive.

With knock-down of BPTF (bromodomain PHD finger transcription factor), the screen gave viability z-score, no drug -1.47; viability vs control, no drug 0.819; inactive. NF1 (neurofibromin 1) gave viability z-score, no drug -0.562; viability vs control, no drug 0.888; inactive. With knock-down of NME7 (NME/NM23 family member 7) the results were viability z-score, no drug 0.901; viability vs control, no drug 1; inactive. With knock-down of TEX14 (testis expressed 14, intercellular bridge forming factor), the screen gave viability z-score, no drug 0.901; viability vs control, no drug 1; inactive. With knock-down of BTK (Bruton tyrosine kinase), the screen gave viability z-score, no drug -0.555; viability vs control, no drug 0.889; inactive. Against PAK1 (p21 (RAC1) activated kinase 1), the values are viability z-score, no drug -1.3; viability vs control, no drug 0.832; inactive.

Depletion of PDK3 (pyruvate dehydrogenase kinase 3) resulted in: viability z-score, no drug -0.451; viability vs control, no drug 0.897; inactive. KSR2 (kinase suppressor of ras 2) gave viability z-score, no drug 0.901; viability vs control, no drug 1; inactive. Silencing of CDC73 (cell division cycle 73) gave: viability z-score, no drug -0.204; viability vs control, no drug 0.916; inactive. Depletion of DGKD (diacylglycerol kinase delta) gave: viability z-score, no drug -0.23; viability vs control, no drug 0.914; inactive. STK36 (serine/threonine kinase 36) scored viability z-score, no drug 0.901; viability vs control, no drug 1; inactive. For SIK1 (salt inducible kinase 1), the values are viability z-score, no drug 0.901; viability vs control, no drug 1; inactive.

Look-ups from the list.
For “call”, CAMK2G (calcium/calmodulin dependent protein kinase II gamma) is entered as inactive
For “viability vs control, no drug”, NF1 (neurofibromin 1) reads 0.888
Result of ELP1 (elongator acetyltransferase complex subunit 1) under “call”: inactive
